Assay results reported in article PMC9445589 (Frontiers in Microbiology, 2022).
Non-standard residues stand in square brackets, D forms with d. Residues, ends and D or L forms follow the SMILES beside them. Aib = CC(C)(N)C(=O)O

System: A. baumannii YQ4 transcriptome
Test: RNA-seq analysis, differentially expressed genes
Type: cell-based, Acinetobacter baumannii
Conditions: 1/4 MIC (4 μg/ml), M9 minimal medium

Structure (SMILES): CC(=O)N[C@@H](C)C(=O)N[C@@H](CO)C(=O)NC(C)(C)C(=O)N[C@@H](CC(C)C)C(=O)N[C@@H](CCCNC(=N)N)C(=O)N[C@@H](CCCCN)C(=O)N[C@@H](CC(C)C)C(=O)NC(C)(C)C(=O)N[C@@H](CCCCN)C(=O)N[C@@H](CCCNC(=N)N)C(=O)N[C@@H](CC(C)C)C(=O)N[C@@H](CC(C)C)C(N)=O [COG1410, acetyl-AS-Aib-LRKL-Aib-KRLL-amide] (Ac-AS[Aib]LRKL[Aib]KRLL-NH2)
- significantly differentially expressed genes (at least 2-fold change): 92
